Results published in US20230277549A1, “NOTCH SIGNALING INHIBITORS FOR TREATING OBESITY AND METABOLIC DISORDERS” (Purdue Research Foundation, priority 2020, published 2023).
Some entries share one result that the patent states for a list of compounds. Some compounds share one range, which may span the group rather than tell each member.

System: Notch signaling (target gene Hes1)
Assay: Notch inhibition: Hes1 mRNA by real-time qPCR in 3T3-L1 preadipocytes
Format: cell-based
Settings: 0.5, 1 and 10 μM, even at the lowest concentration of 0.5 μM
Protocol: Cell culture and drug treatment. 3T3-L1 preadipocytes were cultured in Dulbecco's modified Eagle medium (DMEM) supplemented with 10% fetal bovine serum (FBS) and 1% antibiotics (penicillin and streptomycin) at 37° C., 5% CO2, and 95% relative humidity. The medium was routinely changed every two days and cells were separated by trypsin before reaching confluency. Beige adipocyte differentiation was induced by treating confluent preadipocytes with the adipogenic induction medium containing DMEM, 10% FBS, 0.5 mM isobutylmethylxanthine, 1 μM dexamethasone, 1.75 μM insulin, and 1 μM rosiglitazone. Three days after induction, medium was switched to the differentiation medium containing DMEM, 10% FBS, 850 nM insulin, and 10 nM triiodothyronine until adipocytes matured. For the drug treatment, a series of GSIs were added to the cells in culture medium at the same final drug concentrations of 0.5, 1, and 10 μM, respectively, and cells were induced for differentiation.
RNA extraction, cDNA synthesis, and real-time qPCR. Total RNA was extracted from cells using TRIzol (Thermo Fisher Scientific, Waltham, Mass., USA) in accordance with the manufacturer's protocol. RNA was treated with RNase-free DNase I to remove contaminating genomic DNA and the purity as well as concentration of extracted RNA were determined by a spectrophotometer NanoDrop 2000c (Thermo Fisher Scientific, Waltham, Mass., USA). Subsequently, 2 μg of RNA was reverse transcribed to cDNA using random hexamer primers with M-MLV reverse transcriptase (Invitrogen, Carlsbad, Calif., USA). Real-time qPCR was performed in the Roche Light Cycler 480 PCR system (Roche, Basel, Switzerland) with SYBR Green master mix.
The 2^−ΔΔCT method was used to analyze the relative changes of gene expression after normalization to the expression of β-Actin.
To determine the impact of GSIs on inhibition of Notch signaling, 3T3-L1 preadipocytes were treated with a series of GSIs (see Table 1) at a concentration of 1 μM and the change in mRNA expression of Hes1, a Notch downstream transcriptional target gene, was evaluated using real-time qPCR.
To further examine the relationship between drug concentration and inhibitory effect of GSIs, cells were treated with the four most promising inhibitors (i.e., RO4929097, PF-03084014, LY3039478, and BMS-906024) at three gradient concentrations (0.5, 1, and 10 μM).
Effect of RO4929097-PLGA NPs on the Notch signaling target gene. […] The Notch target Hes1 mRNA expression was analyzed by qRT-PCR (FIG. 8). Each bar is the mean±SEM of 4 to 5 replicates in each group and the data were analyzed by one-way ANOVA followed by Tukey's post hoc comparison test. […]

SMILES | mRNA level of Hes1 downregulated compared to the DMSO control group
CCC[C@H](N[C@H]1CCc2cc(F)cc(F)c2C1)C(=O)Nc1cn(C(C)(C)CNCC(C)(C)C)cn1 [PF-03084014] | 40-50%
CN1C(=O)[C@@H](NC(=O)[C@H](CCC(F)(F)F)[C@H](CCC(F)(F)F)C(N)=O)N=C(c2ccccc2)c2ccccc21 [BMS-906024] | 40-50%
C[C@H](NC(=O)CCC(F)(F)F)C(=O)N[C@@H]1C(=O)N(CCO)c2ncccc2-c2ccccc21 [LY3039478] | 40-50%
CC(C)(C(=O)NCC(F)(F)C(F)(F)F)C(=O)N[C@@H]1C(=O)Nc2ccccc2-c2ccccc21 [RO4929097] | 40-50%
